Measurements taken from the supplement of paper PMC5355238.
Counter-ions that a name gives are not always drawn. Some of the results follow. Most entries show no effect beyond the scatter of the controls.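 Reh is a human leukemia cell line; the read-out is the median γH2AX antibody signal in S-phase cells by flow cytometry, with the score counting standard deviations from the median difference of each paired set of plates. Scores above 2.5 were called candidate hits, while scores below -2 mark compounds that lowered the MK1775-induced damage.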

test system: Reh; assay: Z' of S-phase gammaH2AX difference (drug + MK1775 minus drug alone) (Z-score); higher = stronger synergistic S-phase DNA damage with MK1775; conditions: MK1775 concentration 400 nM; first compound 10 µM; 4 h

Row | SMILES | Z' of S-phase gammaH2AX difference (Z-score)
1 | COc1ccc2[nH]cc(CCN)c2c1 [O-Methylserotonin hydrochloride] + C=CCn1c(=O)c2cnc(Nc3ccc(N4CCN(C)CC4)cc3)nc2n1-c1cccc(C(C)(C)O)n1 [MK1775] | inactive: -0.471
2 | COc1ccc2c3c1O[C@H]1C(=O)CC[C@@]4(O)C(C2)N(CC2CC2)CCC314 (single isomer, unassigned; (-)) [(-)-3-Methoxynaltrexone hydrochloride] + C=CCn1c(=O)c2cnc(Nc3ccc(N4CCN(C)CC4)cc3)nc2n1-c1cccc(C(C)(C)O)n1 [MK1775] | inactive: 0.446
3 | CC[C@@]1(O)C(=O)OCc2c1cc1n(c2=O)Cc2cc3ccccc3nc2-1 [(S)-(+)-Camptothecin] + C=CCn1c(=O)c2cnc(Nc3ccc(N4CCN(C)CC4)cc3)nc2n1-c1cccc(C(C)(C)O)n1 [MK1775] | active: 11.1
4 | Clc1cccc(N2CCNCC2)c1 [1-(3-Chlorophenyl)piperazine dihydrochloride] + C=CCn1c(=O)c2cnc(Nc3ccc(N4CCN(C)CC4)cc3)nc2n1-c1cccc(C(C)(C)O)n1 [MK1775] | inactive: 0.484
5 | C#C[C@]1(O)CC[C@H]2[C@@H]3CCC4=Cc5nc6nc7ccccc7n6cc5C[C@]4(C)[C@H]3CC[C@@]21C + C=CCn1c(=O)c2cnc(Nc3ccc(N4CCN(C)CC4)cc3)nc2n1-c1cccc(C(C)(C)O)n1 [MK1775] | inactive: -0.218
6 | c1ccc2nc(N3CCNCC3)ccc2c1 [Quipazine dimaleate] + C=CCn1c(=O)c2cnc(Nc3ccc(N4CCN(C)CC4)cc3)nc2n1-c1cccc(C(C)(C)O)n1 [MK1775] | inactive: 0.539
7 | C[N+](C)(C)CCCCCCCCCC[N+](C)(C)C [Decamethonium dibromide] + C=CCn1c(=O)c2cnc(Nc3ccc(N4CCN(C)CC4)cc3)nc2n1-c1cccc(C(C)(C)O)n1 [MK1775] | inactive: 0.44
8 | CC1C2Cc3ccc(O)cc3C1(C)CCN2CC1CC1 (single isomer, unassigned; (+)) [(+)-Cyclazocine] + C=CCn1c(=O)c2cnc(Nc3ccc(N4CCN(C)CC4)cc3)nc2n1-c1cccc(C(C)(C)O)n1 [MK1775] | inactive: -0.11
9 | CN1C[C@H](C(=O)N[C@]2(C)O[C@@]3(O)[C@@H]4CCCN4C(=O)[C@H](Cc4ccccc4)N3C2=O)C[C@@H]2c3cccc4[nH]cc(c34)C[C@H]21 [Dihydroergotamine methanesulfonate] + C=CCn1c(=O)c2cnc(Nc3ccc(N4CCN(C)CC4)cc3)nc2n1-c1cccc(C(C)(C)O)n1 [MK1775] | inactive: 0.338
10 | O=C1NCN(c2ccccc2)C12CCN(CC1COc3ccccc3O1)CC2 (stereo not given) [Spiroxatrine] + C=CCn1c(=O)c2cnc(Nc3ccc(N4CCN(C)CC4)cc3)nc2n1-c1cccc(C(C)(C)O)n1 [MK1775] | inactive: -0.17
11 | C[N+]1(C)[C@@H]2CC[C@H]1C[C@@H](OC(=O)C(CO)c1ccccc1)C2 (stereo not given in full) [Atropine methyl nitrate] + C=CCn1c(=O)c2cnc(Nc3ccc(N4CCN(C)CC4)cc3)nc2n1-c1cccc(C(C)(C)O)n1 [MK1775] | inactive: -0.0501
12 | C[N+]1(C)[C@@H]2CC[C@H]1C[C@@H](OC(=O)C(CO)c1ccccc1)C2 (stereo not given in full) [Atropine methyl bromide] + C=CCn1c(=O)c2cnc(Nc3ccc(N4CCN(C)CC4)cc3)nc2n1-c1cccc(C(C)(C)O)n1 [MK1775] | inactive: 0.244
13 | CC(CCc1ccccc1)NC(C)C(O)c1ccc(O)cc1 (stereo not given) [Nylidrin hydrochloride] + C=CCn1c(=O)c2cnc(Nc3ccc(N4CCN(C)CC4)cc3)nc2n1-c1cccc(C(C)(C)O)n1 [MK1775] | inactive: -0.243
14 | Cc1c(C(=O)c2cccc3ccccc23)c2cccc3c2n1[C@H](CN1CCOCC1)CO3 [( R)-(+)-WIN 55,212-2 mesylate] + C=CCn1c(=O)c2cnc(Nc3ccc(N4CCN(C)CC4)cc3)nc2n1-c1cccc(C(C)(C)O)n1 [MK1775] | inactive: -1.13
15 | CCN(CC)C(=O)NC1C=C2c3cccc4[nH]cc(c34)CC2N(C)C1 (stereo not drawn) [S-(-)-Lisuride] + C=CCn1c(=O)c2cnc(Nc3ccc(N4CCN(C)CC4)cc3)nc2n1-c1cccc(C(C)(C)O)n1 [MK1775] | inactive: 0.291
16 | CC(N)Cc1c[nH]c2ccc(OCc3cccs3)cc12 (stereo not given) + C=CCn1c(=O)c2cnc(Nc3ccc(N4CCN(C)CC4)cc3)nc2n1-c1cccc(C(C)(C)O)n1 [MK1775] | inactive: -0.504
17 | CN1CCC(c2c[nH]c3ccc(O)cc23)CC1 + C=CCn1c(=O)c2cnc(Nc3ccc(N4CCN(C)CC4)cc3)nc2n1-c1cccc(C(C)(C)O)n1 [MK1775] | inactive: -0.725
18 | CC(C)[C@@]1(NC(=O)[C@@H]2C[C@@H]3c4cccc5[nH]cc(c45)C[C@H]3N(C)C2)O[C@@]2(O)[C@@H]3CCCN3C(=O)[C@H](Cc3ccccc3)N2C1=O [Dihydroergocristine methanesulfonate] + C=CCn1c(=O)c2cnc(Nc3ccc(N4CCN(C)CC4)cc3)nc2n1-c1cccc(C(C)(C)O)n1 [MK1775] | inactive: -0.872

Row | SMILES | Z' of S-phase gammaH2AX difference (Z-score)
19 | CC1Cc2cc3c(cc2C(c2ccc(N)cc2)=NN1)OCO3 (stereo not given) + C=CCn1c(=O)c2cnc(Nc3ccc(N4CCN(C)CC4)cc3)nc2n1-c1cccc(C(C)(C)O)n1 [MK1775] | inactive: -0.352
20 | C[N+](C)(C)CC#CCN1CCCC1=O [Oxotremorine methiodide] + C=CCn1c(=O)c2cnc(Nc3ccc(N4CCN(C)CC4)cc3)nc2n1-c1cccc(C(C)(C)O)n1 [MK1775] | inactive: -0.184
21 | NC(=O)c1ccc(OCC(O)CN2CC=C(c3ccc(F)cc3)CC2)cc1 (stereo not given) + C=CCn1c(=O)c2cnc(Nc3ccc(N4CCN(C)CC4)cc3)nc2n1-c1cccc(C(C)(C)O)n1 [MK1775] | inactive: -0.106
22 | COc1ccc(CNC(=O)/C=C/c2ccc3[nH]cc(CCN(C)C)c3c2)cc1 + C=CCn1c(=O)c2cnc(Nc3ccc(N4CCN(C)CC4)cc3)nc2n1-c1cccc(C(C)(C)O)n1 [MK1775] | inactive: -0.207
23 | NC(=O)CN1CC(O)CC1=O (stereo not given) [Oxiracetam] + C=CCn1c(=O)c2cnc(Nc3ccc(N4CCN(C)CC4)cc3)nc2n1-c1cccc(C(C)(C)O)n1 [MK1775] | inactive: -0.606
24 | CO[C@H]1CC=C2CCN3CCC4=C(CC(=O)OC4)[C@]23C1 [Dihydro-beta-erythroidine hydrobromide] + C=CCn1c(=O)c2cnc(Nc3ccc(N4CCN(C)CC4)cc3)nc2n1-c1cccc(C(C)(C)O)n1 [MK1775] | inactive: 0.989
25 | COc1cc(C=C(C#N)C#N)cc(O)c1O [Tyrphostin AG 34] + C=CCn1c(=O)c2cnc(Nc3ccc(N4CCN(C)CC4)cc3)nc2n1-c1cccc(C(C)(C)O)n1 [MK1775] | inactive: -0.323
26 | C[N+]1(C)CCOC(O)(c2ccc(-c3ccc(C4(O)C[N+](C)(C)CCO4)cc3)cc2)C1 (stereo not given) [Hemicholinium-3] + C=CCn1c(=O)c2cnc(Nc3ccc(N4CCN(C)CC4)cc3)nc2n1-c1cccc(C(C)(C)O)n1 [MK1775] | inactive: 1.81
27 | COc1ccc(-n2nc(C(F)(F)F)cc2-c2ccc(Cl)cc2)cc1 + C=CCn1c(=O)c2cnc(Nc3ccc(N4CCN(C)CC4)cc3)nc2n1-c1cccc(C(C)(C)O)n1 [MK1775] | inactive: -0.382
28 | Nc1ccncc1 [4-Aminopyridine] + C=CCn1c(=O)c2cnc(Nc3ccc(N4CCN(C)CC4)cc3)nc2n1-c1cccc(C(C)(C)O)n1 [MK1775] | inactive: 0.247
29 | CCS(=O)(=O)Nc1cccc(C(=C2CCCCC2)c2cnc[nH]2)c1 + C=CCn1c(=O)c2cnc(Nc3ccc(N4CCN(C)CC4)cc3)nc2n1-c1cccc(C(C)(C)O)n1 [MK1775] | inactive: -0.0802
30 | O=C(O)CCCc1ccc(N(CCCl)CCCl)cc1 [Chlorambucil] + C=CCn1c(=O)c2cnc(Nc3ccc(N4CCN(C)CC4)cc3)nc2n1-c1cccc(C(C)(C)O)n1 [MK1775] | inactive: -0.357
31 | NCC(O)c1cc(O)c(O)cc1F (stereo not given) [6-Fluoronorepinephrine hydrochloride] + C=CCn1c(=O)c2cnc(Nc3ccc(N4CCN(C)CC4)cc3)nc2n1-c1cccc(C(C)(C)O)n1 [MK1775] | inactive: -0.444
32 | Cc1[nH]c2ccc(O)cc2c1CCN [2-Methyl-5-hydroxytryptamine maleate] + C=CCn1c(=O)c2cnc(Nc3ccc(N4CCN(C)CC4)cc3)nc2n1-c1cccc(C(C)(C)O)n1 [MK1775] | inactive: 0.999
33 | C=CCN1CCc2cccc3c2[C@H]1Cc1ccc(O)c(O)c1-3 [R(-)-N-Allylnorapomorphine hydrobromide] + C=CCn1c(=O)c2cnc(Nc3ccc(N4CCN(C)CC4)cc3)nc2n1-c1cccc(C(C)(C)O)n1 [MK1775] | inactive: 1.6
34 | COc1ccc(C(=O)N2CCCC2=O)cc1 [Aniracetam] + C=CCn1c(=O)c2cnc(Nc3ccc(N4CCN(C)CC4)cc3)nc2n1-c1cccc(C(C)(C)O)n1 [MK1775] | inactive: -0.14
35 | CCCCCCCCCCCCCC(=O)O[C@@H]1[C@@H](C)[C@@]2(O)[C@@H](C=C(CO)C[C@]3(O)C(=O)C(C)=C[C@@H]23)[C@@H]2C(C)(C)[C@]12OC(C)=O [Phorbol 12-myristate 13-acetate] + C=CCn1c(=O)c2cnc(Nc3ccc(N4CCN(C)CC4)cc3)nc2n1-c1cccc(C(C)(C)O)n1 [MK1775] | inactive: 0.0728

Two entries from above, tab-delimited:
Row	SMILES	Z' of S-phase gammaH2AX difference (Z-score)
29	CCS(=O)(=O)Nc1cccc(C(=C2CCCCC2)c2cnc[nH]2)c1 + C=CCn1c(=O)c2cnc(Nc3ccc(N4CCN(C)CC4)cc3)nc2n1-c1cccc(C(C)(C)O)n1 [MK1775]	inactive: -0.0802
30	O=C(O)CCCc1ccc(N(CCCl)CCCl)cc1 [Chlorambucil] + C=CCn1c(=O)c2cnc(Nc3ccc(N4CCN(C)CC4)cc3)nc2n1-c1cccc(C(C)(C)O)n1 [MK1775]	inactive: -0.357
